Reference: PubChem BioAssay AID720505 (Drosophila RNAi Screening Center, 2013)
The screen tested about 20,000 reagents; this is an unselected part of those that have a named target and a result. Of all reagents, about 2,100 (10%) are marked active. 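Raw plate signals without normalisation; calls rest on control-based scores that were not deposited; replicate 2 separates called from uncalled poorly.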 Names joined by + are all predicted targets of the reagent. No sequences are given here. Not stated in the record: the amount of reagent, the time to read-out.

- Assay: 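Genes needed for store-operated calcium entry in fly cells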 (primary screen)
- Cells: Drosophila S2R+ cells
- Knock-down reagent: long dsRNA against Drosophila genes
- Treatment: thapsigargin (2 µM) in calcium-free buffer to empty internal stores, then 2 mM calcium added back
- Detection: 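Fluo-4 signal in 384-well plates read on a FLIPR after thapsigargin (2 µM, calcium-free) store depletion and 2 mM calcium add-back; unnormalised mean endpoint per well; screen run twice, selected wells retested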
- Reading the numbers: calcium signal and retest calcium signal: higher = more calcium entry after store depletion
- Hit rule: 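About 1500 genes called as lowering calcium entry, by varying amounts, judged against per-plate control wells with STIM1 as positive and Rho1 as negative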
- Calls: active = called as lowering calcium entry; inactive = not called

gene,dsRNA,"calcium signal, replicate 1","calcium signal, replicate 2","retest calcium signal, replicate 1","retest calcium signal, replicate 2",Call
c12.2,DRSC18751,81.7,82.7,,,inactive
O-fut2,DRSC18608,62,89.2,,,active
CG34409,DRSC14577,151,103,,,inactive
CG34409,DRSC21667,258,90.7,,,inactive
Nf-YB,DRSC02057,227,106,,,inactive
RpS27,DRSC14244,148,116,,,active
Dab,DRSC11140,120,153,5392,118,inactive
CG31855,DRSC02968,105,97.6,,,inactive
CG34451,DRSC09388,,,,,active
CG8545,DRSC07210,131,134,,,inactive
Trm7-34,DRSC16171,118,102,,,inactive
Cyp12a4,DRSC16620,188,147,,,inactive
TTLL3A,DRSC02143,141,133,,,inactive
pcs,DRSC07042,172,142,,,inactive
FipoQ,DRSC15413,123,128,,,inactive
CG31230,DRSC22130,107,103,,,inactive
CG13566,DRSC04203,123,227,,,inactive
CG15515,DRSC15054,190,195,,,inactive
CG5961,DRSC15927,109,164,,,inactive
tst,DRSC14212,211,287,,,inactive
CG31245,DRSC15498,233,171,,,inactive
CG7557,DRSC10878,209,102,,,inactive
Dyrk2,DRSC03610,104,130,,,inactive
CG31792,DRSC02604,137,113,,,inactive
CG9616,DRSC16518,86.5,53.1,,,inactive
CG18641,DRSC00527,216,163,,,inactive
CG31955,DRSC00285,148,101,,,inactive
nht,DRSC01976,110,141,120,111,inactive
Naa30A,DRSC18583,106,122,,,inactive
Naa30A,DRSC23214,85,145,,,inactive
CstF64,DRSC16616,195,149,,,inactive
h-cup + Rbp,DRSC14990,106,101,,,inactive
prel,DRSC07271,158,161,,,inactive
CG8197,DRSC07105,110,115,,,inactive
drm,DRSC00277,164,109,,,inactive
yellow-h,DRSC17141,132,156,,,inactive
bond,DRSC16135,223,263,,,inactive
CG9297,DRSC16469,67.9,145,,,active
psh,DRSC19990,117,140,,,inactive
CG14042 + SP555,DRSC02367,144,86.6,,,inactive
CG14042 + SP555,DRSC03428,142,99.1,,,inactive
CG8837,DRSC00711,113,107,,,inactive
Vps13B,DRSC15060,127,133,,,inactive
GNBP-like3,DRSC06385,112,113,,,inactive
CG34126,DRSC02726,170,90.9,,,inactive
CG34126,DRSC22079,98.8,229,,,inactive
pyx,DRSC08510,109,125,,,inactive
pyx,DRSC08511,95.8,94.6,,,inactive
CG9114,DRSC20155,76.5,109,,,inactive
alpha-Est6,DRSC12618,91.7,103,,,inactive
Set8,DRSC15473,95.6,93.4,,,inactive
Rnf11,DRSC21574,164,74.6,,,inactive
Naxe,DRSC18251,74.8,98.5,,,active
Or43b,DRSC07486,105,128,,,inactive
CG14137,DRSC10142,125,104,,,inactive
Hakai,DRSC02031,94.2,113,,,inactive
Ucp4A,DRSC19996,130,134,111,71,inactive
bchs,DRSC03126,225,109,,,inactive
Fpgs1,DRSC19857,75.1,111,,,inactive
CG15196,DRSC19643,76.2,84.8,,,inactive
CG2291,DRSC06836,143,155,,,inactive
CG4789,DRSC19918,144,150,,,inactive
ND1 (retired record),DRSC21273,188,88.8,,,inactive
Klp59C,DRSC04348,79.9,222,,,inactive
Setd3,DRSC17840,222,95.7,,,inactive
Setd3,DRSC18269,266,139,,,inactive
CG9014,DRSC01979,126,98.7,,,inactive
Bem46,DRSC00275,97.4,91.5,,,inactive
Orp8,DRSC15110,134,136,8387,195,inactive
Orp8,DRSC15712,186,222,,,inactive
ND-B14,DRSC07029,107,148,,,inactive
CG10516,DRSC09738,114,174,,,inactive
NK7.1,DRSC16755,102,151,,,inactive
PPO1,DRSC05929,177,166,,,inactive
CG17717,DRSC18130,165,127,,,inactive
Psn,DRSC11743,82.3,111,,,inactive
tyn,DRSC20652,195,98,,,inactive
ind,DRSC11355,110,195,,,inactive
ind,DRSC23095,155,149,,,inactive
Ttd14,DRSC06632,125,110,,,inactive
Ttd14,DRSC06942,187,151,,,inactive
Sxl,DRSC18721,119,98.7,,,inactive
Sxl,DRSC18722,215,179,,,inactive
Sxl,DRSC21490,149,88.5,,,inactive

Part of the list above, limited to “calcium signal, replicate 2”.
CG4789 [DRSC19918]: 150
ND1 (retired record) [DRSC21273]: 88.8
Klp59C [DRSC04348]: 222
Setd3 [DRSC17840]: 95.7
Setd3 [DRSC18269]: 139
CG9014 [DRSC01979]: 98.7
Bem46 [DRSC00275]: 91.5
